# PubChem BioAssay AID1688 (National Center for Advancing Translational Sciences (NCATS), 2009)
# Screen size: about 220,000 compounds; about 2,400 (1.1%) were called active. Inconclusive results, whose numbers are uncertain, are shown with a selection of clear calls. Calls follow the shape of the dose curve; as a rule, active = well fitted inhibition curve with a large enough effect; inconclusive = small, poorly fitted or top-dose-only effect, or effect the other way; inactive = no such curve, though single readings can be large or run the other way. Potencies of inconclusive entries are doubtful fits and often do not repeat.
# Assay: qHTS Multiplex Assay to Identify Dual Action Probes in a Cell Model of Huntington: Aggregate Formation (GFP); also: nearly all actives have a fitted effect of over 60% in size
# Details: PC12 HttQ103-GFP aggregates, Acumen cytometry, 40 h; activity change, negative = inhibition: at 46.1 µM (top of the series) unless noted
# Procedure, shortened: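 Ecdysone-promoter PC12 model expressing HTT exon 1 Q103 fused to GFP, induced by tebufenozide at 100 nM final. Compounds titrated; aggregates sized 1–25 µm scored on a 488 nm laser cytometer.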
# % is scaled to controls: 0 for no effect and ±100 for the full control effect; potency is read from the fitted curve at half-maximal effect.
SMILES,Potency,"activity change, negative = inhibition"
CC1Cc2ccccc2N1C(=O)c1cc2sccc2n1Cc1ccc(F)cc1 (stereo unspecified),"inconclusive: 31.6 µM [inhibitor, partial curve]",
O=C(/C(=C/O)N=Nc1ccccc1)c1ccc(Cl)cc1,"inconclusive: 35.5 µM [inhibitor, single point]",
CCOC(=O)c1ccc(NC(=S)N2CCN(CCN=CC3=C(O)CC(C)(C)CC3=O)CC2)cc1,"inconclusive: 3.16 µM [activator, single point]",
COC1CCCCC1Nc1ccc(C)c(C)c1 (stereo unspecified),"inconclusive: 1.26 µM [activator, single point]",
CCN(C(=O)CCc1nc(-c2ccc(OC)cc2)no1)c1cc(OC)ccc1OC,"inconclusive: 11.2 µM [inhibitor, partial curve]",
CC(/C=N/NC(=O)Cn1cnc2c1c(=O)n(C)c(=O)n2C)=C\c1ccccc1,"inconclusive: 0.562 µM [activator, full curve, poor fit]",
COc1cc(/C=N/NC(=O)C(=O)NCc2ccco2)cc(Br)c1O,,inactive: 14.5% [at 9.22 µM]
Fc1cccc(Nc2cc(-n3cccn3)ncn2)c1,active: 12.6 µM,
Cc1cccc(NCCC(=O)c2ccc(Br)cc2)c1,,inactive: 1.71%
CCCCCCn1c(NCC)nc2c1c(=O)[nH]c(=O)n2C,"inconclusive: 10 µM [activator, partial curve]",
Cc1ccccc1NC(=O)C(=Cc1ccc(C(=O)O)cc1)C(=O)Nc1ccccc1C,active: 6.31 µM,
Cc1cc(NC(=O)c2cc(-c3cccs3)on2)no1,active: 7.08 µM,
CC(=C/C(=O)O)/C=C/c1ccco1,"inconclusive: 10 µM [activator, partial curve]",
CC(=O)Oc1ccccc1-n1c(C)nc(=O)c(-c2ccccc2)c1C,,inactive: -4.72% [at 9.22 µM]
O=S(=O)(c1ccc(Br)s1)N1CCN(c2ccccc2)CC1,"inconclusive: 10 µM [inhibitor, partial curve]",
COc1ccc(C2=Nn3c(nnc3-c3ccccn3)SC2)cc1,"inconclusive: 17.8 µM [activator, single point]",
COCCn1nnnc1C(c1cc2cc(OC)ccc2[nH]c1=O)N1CCC(Cc2ccccc2)CC1 (stereo unspecified),"inconclusive: 12.6 µM [inhibitor, partial curve]",
CC(N=Cc1cc([N+](=O)[O-])ccc1O)c1ccccc1 (stereo unspecified),"inconclusive: 6.31 µM [activator, single point]",
Cc1nn(Cc2ccc(Cl)c(Cl)c2)c(C)c1NC(=O)c1cn(-c2ccccc2)nc1-c1ccccc1,"inconclusive: 11.2 µM [inhibitor, partial curve]",
CCCn1c(NC(=O)c2ccc(C)cc2)nc2ccccc21,"inconclusive: 0.316 µM [inhibitor, full curve]",
CC(C)COCc1ccc(O)c2ncccc12,active: 10 µM,
Cc1cc(C)n2nc(C(=O)N/N=C/C=C/c3ccccc3)nc2n1,"inconclusive: 5.62 µM [activator, single point]",
CCCCCCCCCCCCCC[N+](C)(C)Cc1ccccc1,active: 25.1 µM,

# As entered above.
# CCOC(=O)c1ccc(NC(=S)N2CCN(CCN=CC3=C(O)CC(C)(C)CC3=O)CC2)cc1 – Potency: inconclusive: 3.16 µM [activator, single point]
# CC(/C=N/NC(=O)Cn1cnc2c1c(=O)n(C)c(=O)n2C)=C\c1ccccc1 – Potency: inconclusive: 0.562 µM [activator, full curve, poor fit]

# (cont.)

SMILES,Potency,"activity change, negative = inhibition"
Cc1ccc(-c2cn3cccnc3n2)cc1,,inactive: -5.48%
Cc1ccc(S(=O)(=O)c2c(C)nn(C(C)(C)C)c2OC(=O)C(C)(C)C)cc1,"inconclusive: 35.5 µM [inhibitor, single point]",
O=C1NN(c2ccc(Cl)cc2)C(=O)/C1=C\c1ccc(-c2cccc(C(=O)O)c2)o1,,inactive: 10.8%
N/C(=N\OC(=O)C(c1ccccc1)c1ccccc1)c1cccnc1,active: 0.708 µM,
O=C(CSc1nnc(CNc2ccc(F)cc2)o1)N1c2ccccc2Sc2ccccc21,"inconclusive: 35.5 µM [inhibitor, single point]",
CCCOc1ccc(Cn2c(C)nc([N+](=O)[O-])c2SCC(O)COC)cc1[N+](=O)[O-] (stereo unspecified),"inconclusive: 5.62 µM [inhibitor, single point]",
Cc1cc(NC(=O)CCC(=O)N(CCC(C)C)CC(=O)NCC2CCCO2)no1 (stereo unspecified),,inactive: -5.29%
COc1ccc(C(=O)Nc2ccc(C(=O)OCC(=O)c3ccccc3)cc2)cc1,,inactive: -1.97%
O=C(CSc1ccccc1)NCCSCc1ccccc1,,inactive: -2.95%
Cc1ccc(-c2c3c(nc4sc(C(N)=O)c(N)c24)CCC3)cc1,active: 10 µM,
Cc1nnc(NC(=O)c2ccc(S(=O)(=O)C(F)F)cc2)s1,,inactive: -13.8% [at 9.22 µM]
Cc1ccc(NC(=O)c2oc3ccc(S(=O)(=O)N4CCC5(CC4)OCCO5)cc3c2C)cc1C,"inconclusive: 35.5 µM [inhibitor, single point]",
CCCN1C2=NS(=O)(=O)CCN2c2ccccc21,"inconclusive: 1.41 µM [inhibitor, full curve, poor fit]",
O=C(C1CCCN(S(=O)(=O)c2ccc(F)cc2)C1)N(Cc1cccs1)C1CC1 (stereo unspecified),"inconclusive: 31.6 µM [inhibitor, single point]",
Cc1[nH]nc2c1C(c1ccoc1)C(C#N)=C(N)O2 (stereo unspecified),,inactive: -11.4%
COc1ccc(Cl)cc1N(C(C)C(=O)O)S(C)(=O)=O (stereo unspecified),"inconclusive: 3.16 µM [activator, full curve, poor fit]",
O=C(O)c1ccc2nc3c(nc2c1)-c1ccccc1C3=O,"inconclusive: 3.16 µM [activator, full curve, poor fit]",
c1ccc2sc(SCc3ccc(-c4nnco4)cc3)nc2c1,"inconclusive: 35.5 µM [inhibitor, single point]",
COc1ccccc1CNC(=O)c1cccc(-c2ccc(C)c3ccccc23)n1,"inconclusive: 22.4 µM [inhibitor, single point]",
c1csc(CNCc2ccncc2)c1,,inactive: -13.2%
COc1ccc(Cn2c(=O)[nH]c3cc(C(=O)NCCCN4CCCC4)ccc3c2=O)cc1,"inconclusive: 35.5 µM [inhibitor, single point]",
CC1CC(C)C[N+](=C2C=C(N3CCCC3)CC(C)(C)C2)C1 (stereo unspecified),"inconclusive: 1.26 µM [inhibitor, full curve]",
COc1ccc(NS(=O)(=O)c2cccc(NC(=O)c3ccc(Cl)nc3)c2)cc1,active: 2.51 µM,
